Source: the supplement of paper PMC11150407
Among all 2,100 compounds or so, about 180 (8.6%) showed an effect of 50% or more. The list shows a part of the results.

Each compound was assayed on MOLM1 and UCSD/AML1 (averaged) (assay: cell viability relative to DMSO control (POC); higher = less growth inhibition). Conditions: 1 µM; 72 h.
Description: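 Primary viability screen in the 3q26 EVI1-high AML cell lines MOLM1 and UCSD/AML1 (1.5e3 cells/well, 384-well), compounds at 1 uM for 72 h. ATP CellTiter-Glo read-out given as percent of viable cells over DMSO control (POC), averaged over duplicates. DMSO was the negative control and 5 uM etoposide the positive control. This mapping covers the MicroSource Spectrum and Selleck anticancer libraries (drug names).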

Row | Structure (SMILES) | cell viability
1 | CC(Cc1ccc(O)cc1)NCC(O)c1cc(O)cc(O)c1 (stereo not drawn) | 102%
2 | Cc1ccccc1-n1c(Cn2cnc3c(N)ncnc32)nc2cccc(C)c2c1=O | 88%
3 | CSc1nc(NC(C)C)nc(NC(C)C)n1 | 102%
4 | COc1ccc2c(c1)[C@]13CCCC[C@@H]1[C@H](C2)N(C)CC3 | 97.6%
5 | C=C[C@H]1CN2CC[C@H]1C[C@H]2[C@H](O)c1ccnc2ccccc12 | 105%
6 | C[C@H]1O[C@@H](O[C@H]2[C@@H](O)C[C@H](O[C@H]3[C@@H](O)C[C@H](O[C@H]4CC[C@@]5(C)[C@H](CC[C@@H]6[C@@H]5CC[C@]5(C)[C@@H](C7=CC(=O)OC7)[C@@H](O)C[C@]65O)C4)O[C@@H]3C)O[C@@H]2C)C[C@H](O)[C@@H]1O | 3.82%
7 | CC1=NCCc2c1[nH]c1cc(O)ccc21 | 96.2%
8 | O=C1C=CC(=O)c2c(O)cccc21 | 107%
9 | C[C@]12CC[C@H]3[C@@H](CC[C@]4(O)C[C@@H](O)CC[C@]34C=O)[C@@]1(O)CC[C@@H]2C1=CC(=O)OC1 | 3.15%
10 | O=C([O-])c1ccccc1-c1c2cc(Br)c(=O)cc-2oc2[c]([Hg+])c([O-])c(Br)cc12.[Na+].[Na+].[OH-] | 87.1%
11 | N#C/C(=C\c1cccc(O)c1)C(=O)O [alpha-CYANO-3-HYDROXYCINNAMIC ACID] | 94.3%
12 | CC(=O)O[C@@H]1C[C@@]2(C)[C@H](c3ccoc3)C[C@H]3O[C@]32[C@]2(C)C(=O)C(O)=C3C(C)(C)C(=O)C=C[C@]3(C)[C@@H]12 | 19.3%
13 | C#C[C@]1(O)CC[C@H]2[C@@H]3CCC4=CC(=O)CC[C@]4(C)[C@H]3CC[C@@]21C | 93.8%
14 | CC(C)[N+](C)(CCC(C(N)=O)(c1ccccc1)c1ccccc1)C(C)C | 115%
15 | CC(C)CC(N(C)C)C1(c2ccc(Cl)cc2)CCC1 (stereo not drawn) | 80.2%
16 | COC(=O)[C@@H]1C[C@H](OC(C)=O)C(=O)[C@H]2[C@@]1(C)CC[C@H]1C(=O)O[C@H](c3ccoc3)C[C@]21C | 104%
17 | CC[C@@]1(O)C[C@H](O)c2c(cc3c(c2O)C(=O)c2c(O)ccc(O)c2C3=O)[C@H]1C(=O)OC | 99.6%
18 | O=C(O)CCCc1ccc(N(CCCl)CCCl)cc1 | 97.9%
19 | Nc1ccncc1 | 100%
20 | CC[C@H](C)[C@H]1O[C@]2(C=C[C@@H]1C)C[C@@H]1C[C@@H](C/C=C(\C)[C@@H](O[C@H]3C[C@H](OC)[C@@H](O[C@H]4C[C@H](OC)[C@@H](O)[C@H](C)O4)[C@H](C)O3)[C@@H](C)/C=C/C=C3\CO[C@@H]4[C@H](O)C(C)=C[C@@H](C(=O)O1)[C@]34O)O2.CO[C@H]1C[C@H](O[C@H]2[C@H](C)O[C@@H](O[C@@H]3/C(C)=C/C[C@@H]4C[C@@H](C[C@]5(C=C[C@H](C)[C@@H](C(C)C)O5)O4)OC(=O)[C@@H]4C=C(C)[C@@H](O)[C@H]5OC/C(=C\C=C\[C@@H]3C)[C@]54O)C[C@@H]2OC)O[C@@H](C)[C@@H]1O | 91.9%
21 | COc1cc([C@@H]2c3cc4c(cc3[C@H](OC(C)=O)[C@H]3COC(=O)[C@H]23)OCO4)cc(OC)c1OC | 6.04%
22 | CC(C)=CC1C(C(=O)OCc2cccc(Oc3ccccc3)c2)C1(C)C (stereo not drawn) | 107%
23 | C[CH2][Hg][S]c1ccccc1C(=O)[O-].[Na+] | 99.6%
24 | CC1(C)C(=O)C=C[C@]2(C)[C@H]3CC[C@@]4(C)[C@H](c5ccoc5)OC(=O)[C@H]5O[C@]54[C@]3(C)[C@H](O)C[C@@H]12 | 98.3%
25 | O=C1C=C2C=C[C@@H]3C[C@@]2(O1)[C@H]1CCCCN31 | 108%
26 | Oc1noc2c1CCNC2 | 110%
27 | O=c1ccc2c(O)c3ccoc3cc2o1 | 91.2%

Random excerpt: two records from the list.
Row | Structure (SMILES) | cell viability
16 | COC(=O)[C@@H]1C[C@H](OC(C)=O)C(=O)[C@H]2[C@@]1(C)CC[C@H]1C(=O)O[C@H](c3ccoc3)C[C@]21C | 104%
12 | CC(=O)O[C@@H]1C[C@@]2(C)[C@H](c3ccoc3)C[C@H]3O[C@]32[C@]2(C)C(=O)C(O)=C3C(C)(C)C(=O)C=C[C@]3(C)[C@@H]12 | 19.3%

Further results follow.

Row | Structure (SMILES) | cell viability
28 | C/C=C(/C)C(=O)O[C@H]1CC[C@@]2(C)[C@@H]3CC[C@H]4[C@]5(O)C[C@H](O)[C@@]6(O)[C@@H](CN7C[C@@H](C)CC[C@H]7[C@@]6(C)O)[C@]5(O)C[C@@]42O[C@]13O | 94.9%
29 | CCCC(C)C1(CC)C(=O)NC(=S)NC1=O (stereo not drawn) | 96.6%
30 | COc1cc([C@@H]2c3cc4c(cc3[C@H](O)[C@H]3COC(=O)[C@@H]23)OCO4)cc(OC)c1OC | 12.3%
31 | CC(CCc1ccccc1)NC(C)C(O)c1ccc(O)cc1 (stereo not drawn) | 96%
32 | COc1cccc(C2(O)CCCCC2CN(C)C)c1 (stereo not drawn) | 107%
33 | Cc1cc(OC(=O)N2CCCCC2)c(C(C)C)cc1[N+](C)(C)C | 111%
34 | C[N+](C)(C)CCCCCCCCCC[N+](C)(C)C | 99.5%
35 | c1ccc2nc(N3CCNCC3)ccc2c1 | 104%
36 | C[N+]1(C)[C@@H]2CC[C@H]1C[C@@H](OC(=O)C(CO)c1ccccc1)C2 (stereo partly drawn) | 108%
37 | CN1C[C@H](C(=O)N[C@]2(C)O[C@@]3(O)[C@@H]4CCCN4C(=O)[C@H](Cc4ccccc4)N3C2=O)C[C@@H]2c3cccc4[nH]cc(c34)C[C@H]21 | 112%
38 | NCCc1cc(O)c(O)cc1O | 93.6%
39 | CC(C)=CCC[C@]1(C)C=Cc2c(O)c3c(c(CC=C(C)C)c2O1)O[C@]12C(=C[C@@H]4C[C@H]1C(C)(C)O[C@@]2(C/C=C(/C)C(=O)O)C4=O)C3=O | 1.06%
40 | C#CCOS(=O)OC1CCCCC1Oc1ccc(C(C)(C)C)cc1 (stereo not drawn) | 89.9%
41 | CC[C@@]1(O)C(=O)OCc2c1cc1n(c2=O)Cc2cc3ccccc3nc2-1 | 1.42%
42 | O=C1C[C@@H]2OCC=C3CN4CC[C@]56c7ccccc7N1[C@H]5[C@H]2[C@H]3C[C@H]46 | 100%
43 | N#Cc1nn(-c2c(Cl)cc(C(F)(F)F)cc2Cl)c(N)c1[S+]([O-])C(F)(F)F (stereo not drawn) | 104%
44 | CCCCCCCCCc1ccc(O)cc1 | 105%
45 | Cc1ncc(CNC(=O)N(CCCl)N=O)c(N)n1 | 111%
46 | CCC12C=CCN3CC[C@@]4(c5ccc(OC)cc5N(C)[C@H]4[C@@](O)(C(=O)OC)[C@@H]1OC(C)=O)[C@@H]32 (stereo partly drawn) | 94%
47 | CN1CCCCC1c1ccc(-c2cccnc2)nc1 (stereo not drawn) | 107%
48 | CC(=O)Oc1ccc(/C=C/c2cc(OC(C)=O)cc(OC(C)=O)c2)cc1 | 89.3%
49 | CC1=C(O)C(=O)C=C2C1=CC=C1[C@@]2(C)CC[C@@]2(C)[C@@H]3C[C@](C)(C(=O)O)CC[C@]3(C)CC[C@]12C | 30.1%
50 | Oc1cccc2cccnc12 | 95.3%
51 | N.N.[Cl][Pt][Cl] [Cisplatin] | 104%
52 | N.N.[Cl][Pt][Cl] | 103%
53 | CCCN1C[C@H](CSC)C[C@@H]2c3cccc4[nH]cc(c34)C[C@H]21 | 101%
